Experimental data reported in US6500843B2, “Inhibitors of rotamase enzyme activity” (GPI NIL Holdings, Inc., priority 1995, dated 2002).
Entries after “also recorded” stand apart in the source; their conditions may differ. At least one compound was matched to its structure with a doubt left.

Assays:
dorsal root ganglia = test: Neurite outgrowth in rat embryonic day 16 dorsal root ganglia explants; type: cell-based
Procedure: Stage E16 embryos were removed from pregnant Sprague-Dawley rats and the dorsal root ganglia dissected. Whole ganglia explants were cultured in collagen-coated 35 mm dishes (Falcon) using N2 medium (Dulbecco's Modified Eagle medium and Ham's F12 medium mixed 1:1 and supplemented with progesterone, selenium, insulin, putrescine, glucose, and penicillin-streptomycin) at 37° C. in a 15% CO2 environment. […] Ganglia were observed every 2-3 days under phase-contrasting using an Olympus IMT-2 inverted microscope, and measurements of axon length were made. The axonal field of each ganglion was divided into four quadrants, and the length of the longest axons in each quadrant was measured in microns using an eye-piece micrometer. The average of these measurements was taken as the axon length for the ganglion.

[1] = tested on: chick dorsal root ganglion explant cultures; test: Neurite outgrowth in chick dorsal root ganglion explant cultures; type: cell-based; conditions: 100 nM, plus or minus 0.1 ng/ml NGF, 48 hrs (FIG. 18)
PC-12 cells = test: Neurite outgrowth in PC-12 cells in the presence of NGF

SMILES: C=CC[C@@H]1/C=C(\C)C[C@H](C)C[C@H](OC)[C@H]2O[C@@](O)(C(=O)C(=O)N3CCCC[C@H]3C(=O)O[C@H](/C(C)=C/[C@@H]3CC[C@@H](O)[C@H](OC)C3)[C@H](C)[C@@H](O)CC1=O)[C@H](C)C[C@@H]2OC [FK506]
- Neurotrophic effect alone compared with NGF (100 ng/ml) (dorsal root ganglia; FK506 1 μM, no added NGF): produces a similar neurotrophic effect

SMILES: CO[C@H]1C[C@@H]2CC[C@@H](C)[C@@](O)(O2)C(=O)C(=O)N2CCCC[C@H]2C(=O)O[C@H]([C@H](C)C[C@@H]2CC[C@@H](O)[C@H](OC)C2)CC(=O)[C@H](C)/C=C(\C)[C@@H](O)[C@@H](OC)C(=O)[C@H](C)C[C@H](C)/C=C/C=C/C=C/1C [Rapamycin]
- Potentiation of NGF-dependent neurite production in sensory ganglia [1]: potentiate NGF-dependent neurite production
- Potentiation of neurite extension elicited by NGF (PC-12 cells; picomolar concentrations, 0.5 ng/ml NGF, 4 days (FIG. 15)): potentiate neurite extension
- Neurite outgrowth (neurotrophic effect) (PC-12 cells; rapamycin 1 nM): major neurite outgrowth
- Blockade of the neurotrophic actions of FK506 (PC-12 cells; rapamycin 1 μM): fails to block the neurotrophic actions of FK506
- Blockade of the effects of FK506 (1 μM) (dorsal root ganglia; rapamycin 1 μM): completely blocks the effects of FK506; also recorded: completely inhibits axon outgrowth in the presence of FK506
